This note sets out measurements from paper doi:10.1101/251975.

Chains of the proteins cited; added tags and fusions are not shown.
UniProt O49686: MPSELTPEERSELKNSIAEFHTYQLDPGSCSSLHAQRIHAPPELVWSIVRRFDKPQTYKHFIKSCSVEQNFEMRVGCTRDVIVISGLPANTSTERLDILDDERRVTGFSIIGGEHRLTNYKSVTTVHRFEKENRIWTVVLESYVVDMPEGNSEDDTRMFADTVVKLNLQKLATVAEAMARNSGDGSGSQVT

No constants are given. Whether binding was seen depends on the method and setting. In cells and extracts the contact can be indirect. Some entries that bind do so weakly or less than the wild type.

The test deals with T1, YC-PP2CA (Arabidopsis thaliana) (UniProt P49598).
T1 sequence: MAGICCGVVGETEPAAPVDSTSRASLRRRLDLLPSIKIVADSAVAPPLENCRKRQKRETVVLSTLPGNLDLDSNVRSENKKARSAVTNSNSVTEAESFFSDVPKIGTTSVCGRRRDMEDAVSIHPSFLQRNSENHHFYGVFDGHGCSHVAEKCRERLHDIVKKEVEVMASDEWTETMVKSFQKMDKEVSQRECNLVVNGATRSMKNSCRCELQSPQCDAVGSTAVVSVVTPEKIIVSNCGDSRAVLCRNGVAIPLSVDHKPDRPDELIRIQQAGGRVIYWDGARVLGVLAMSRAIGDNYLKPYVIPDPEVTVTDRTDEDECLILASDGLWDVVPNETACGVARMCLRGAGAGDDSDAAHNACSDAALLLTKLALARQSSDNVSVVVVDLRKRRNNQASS
The test is described as follows: split reporter.

Take “YN-PYR1 (from UniProt O49686 1-191) (receptor)”: the binding entry is “binds”.

B1: YN-WNK8 (enzyme, UniProt Q944Q0 1-563)
chain: MASGSGFLGQISSMEEADFAEKDPSGRYIRYDDVLGRGAFKTVYKAFDEVDGIEVAWNLVSIEDVMQMPGQLERLYSEVHLLKALKHENIIKLFYSWVDEKNKTINMITELFTSGSLRVYRKKHRKVDPKAIKNWARQILKGLNYLHSQNPPVIHRDLKCDNIFVNGNTGEVKIGDLGLATVLQQPTARSVIGTPEFMAPELYEEEYNELVDIYSFGMCMLEMVTCEYPYNECRNQAQIYKKVTSNIKPQSLGKVDDPQVRQFIEKCLLPASSRPTALELSKDPFLARDGGKDSALLASSSTSSKYVRPPQLEHLPMDVDHNENKSVSSNEDYPWSQTIELQRIAENKEFRLRGERSDDVTASMVLRIADPSGKCRIVHFAFYLESDTATAIAEEMVEELHLTSQEVVVIADMIDDFIMQLLSDRTSSHHNQNSPRLTHEDHEAANQQTVNSKDEEAAGQSMKSDISADYYFPYSANDGNAAMEAGRDAESMSSYLDSCSMMSTIYNLSISDNDYPEDLKTELNLIESQFNQSFQDLLKLKEDAIENAKRKWITKKQKAVNIS
With B1, the binding entry is recorded as “binds”.
